Reference: PubChem BioAssay AID504648 (National Center for Advancing Translational Sciences (NCATS), 2011)
About 610 (0.16%) of roughly 390,000 compounds were called active. Inconclusive results, whose numbers are uncertain, are shown with a selection of clear calls. Calls follow the shape of the dose curve; as a rule, active = well fitted inhibition curve with a large enough effect; inconclusive = small, poorly fitted or top-dose-only effect, or effect the other way, or another doubt; inactive = no such curve, though single readings can be large or run the other way. Potencies of inconclusive entries are doubtful fits and often do not repeat.

Assay: Nrf2 qHTS screen for inhibitors: counterscreen for cytotoxicity
Details: A549 ARE-Fluc cells, CellTiter-Fluor viability, 18-24 h; activity change, negative = cytotoxicity: at 46 µM (top of the series)
Procedure, shortened: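 A549 ARE-Fluc cells in 5% FBS OPTI-MEM, 5000 cells/well, rested 2 h then exposed to compounds in concentration-response for 18-24 h at 37 °C. Viability by CellTiter-Fluor fluorescence (Ex 405/Em 525) after 30 min; luciferase luminescence (BugLite, 15 min, RT) read afterwards.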
% is scaled to controls: 0 for no effect and ±100 for the full control effect; potency is read from the fitted curve at half-maximal effect.

SMILES	Potency	activity change, negative = cytotoxicity
CCCCCNC(=O)CC1Nc2c3ccccc3nc(=S)n2C1=O (configuration not stated)	inconclusive: 29.1 µM [falling, partial curve, poor fit]	–
Cc1cc(C)nc(N2CCCC(C(=O)NCc3cccc(C(F)(F)F)c3)C2)n1 (configuration not stated)	inconclusive: 16.4 µM [activator, partial curve, poor fit]	–
COc1ccc(C(=O)NCC(C)(C)SCc2c(C)cc(C)cc2C)cc1	inconclusive: 20.6 µM [falling, single point]	–
Cc1ccc(OCCOC(=O)c2cc(S(=O)(=O)N3CCCCC3)ccc2N2CCOCC2)cc1	–	inactive: -10.2%
Cn1cc(C(=O)N/N=C/C(Br)=C\c2ccccc2)ccc1=O	inconclusive: 14.6 µM [falling, partial curve]	–
COc1ccc(C(=O)c2cn(Cc3ccc(F)cc3)c3ccc(C)cc3c2=O)cc1	inconclusive: 29.1 µM [falling, partial curve, poor fit]	–
COc1cccc(C(=O)/C=C/Nc2cc(C)ccc2O)c1	inconclusive: 25.9 µM [falling, single point]	–
CN(C)S(=O)(=O)c1ccc(NC(=O)CSc2n[nH]c(=O)n2C2CC2)cc1	inconclusive: 6.51 µM [activator, partial curve, poor fit]	–
Cc1cccc(NC(=O)c2nc(S(C)(=O)=O)ncc2Cl)c1	inconclusive: 29.1 µM [falling, single point]	–
NS(=O)(=O)c1ccc(CCNCc2cc(Cl)ccc2OCc2ccccc2)cc1	inconclusive: 18.4 µM [falling, partial curve, poor fit]	–
Cc1cc(=O)oc2c1ccc1oc(/C(=N/O)c3ccccc3)c(C)c12	–	inactive: -2.47%
Cc1ccccc1C(=O)N1CC(=O)Nc2ccc(F)cc2C1c1ccc(F)cc1 (configuration not stated)	–	inactive: 1%
O=C(c1ccccc1)N1CCN(c2ccc([N+](=O)[O-])c(NCC3CCCO3)c2)CC1 (configuration not stated)	inconclusive: 23.1 µM [falling, single point]	–
NNC(=O)CN1C(c2ccccc2)=Nc2ccc(Br)cc2C1c1ccccc1 (configuration not stated)	–	inactive: 1.54%
CCOc1ccc2nc(C)cc(Nc3ccccc3OCC)c2c1	–	inactive: -13.3%
ONC(=Nc1ccccc1Cl)c1c(F)cccc1F	inconclusive: 10.3 µM [activator, partial curve, poor fit]	–
COc1ccc(Oc2c(Cl)cnn(-c3ccc(Cl)c(Cl)c3)c2=O)cc1	inconclusive: 23.1 µM [falling, partial curve, poor fit]	–
Cc1ccc(Cc2c(C)c(C#N)c3[nH]c4ccccc4n3c2=O)cc1	inconclusive: 16.4 µM [falling, partial curve, poor fit]	–
O=C1C=CC(O)(c2cc(=O)c3c(O)cc(O)cc3o2)C=C1	inconclusive: 32.6 µM [falling, single point]	–
O=C(N/N=C/c1ccccn1)c1cc(-c2ccc(Br)cc2)nc2ccccc12	inconclusive: 4.11 µM [falling, single point]	–
c1ccc(-c2nc(N3CCCCC3)nc3ccccc23)cc1	inconclusive: 29.1 µM [activator, partial curve, poor fit]	–
CNc1ccc(Br)cc(C(=O)/C=C/c2ccc3c(c2)OCO3)c1=O	–	inactive: -19.5%
Cc1ccc(-n2c(O)c(C=Nc3ccccc3-c3n[nH]c(=S)[nH]c3=O)c3ccccc3c2=O)c(C)c1	inconclusive: 14.6 µM [falling, partial curve]	–

Four successive entries already listed, quoted:
SMILES	Potency	activity change, negative = cytotoxicity
COc1ccc(C(=O)c2cn(Cc3ccc(F)cc3)c3ccc(C)cc3c2=O)cc1	inconclusive: 29.1 µM [falling, partial curve, poor fit]	–
COc1cccc(C(=O)/C=C/Nc2cc(C)ccc2O)c1	inconclusive: 25.9 µM [falling, single point]	–
CN(C)S(=O)(=O)c1ccc(NC(=O)CSc2n[nH]c(=O)n2C2CC2)cc1	inconclusive: 6.51 µM [activator, partial curve, poor fit]	–
Cc1cccc(NC(=O)c2nc(S(C)(=O)=O)ncc2Cl)c1	inconclusive: 29.1 µM [falling, single point]	–

Next records follow:

SMILES	Potency	activity change, negative = cytotoxicity
CCc1ccc(S(=O)(=O)N2CCN(C(=O)c3cccnc3)CC2)cc1	–	inactive: -0.482%
Clc1ccc(-n2c(SC/C=C/c3ccccc3)nnc2-c2cccnc2)cc1	inconclusive: 18.4 µM [falling, partial curve, poor fit]	–
O=C(CN1C(=O)COc2ccc(S(=O)(=O)N3CCOCC3)cc21)NCc1ccc(F)cc1	–	inactive: 11.7%
COc1cc(C2CC(=O)c3c([nH]c(C(=O)OCCOC(C)C)c3C)C2)cc(OC)c1OC (configuration not stated)	inconclusive: 16.4 µM [falling, single point]	–
COc1ccc(C(C(=O)NC2CCCCC2)N(C(=O)CCl)c2cccc(Cl)c2)cc1 (configuration not stated)	inconclusive: 20.6 µM [falling, single point]	–
CN(CC(=O)Nc1ccc(Cl)c(Cl)c1)C(=O)C12CC3CC(CC(C3)C1)C2	inconclusive: 29.1 µM [falling, single point]	–
COc1cccc(CNC(=O)CSc2nnc(C)c3c(C)n(-c4ccccc4)nc23)c1	–	inactive: 5.79%
NC(=O)CC[C@@H]1NC(=O)[C@@H]2CCCN2C(=O)c2cc([N+](=O)[O-])cc(F)c2NCCC[C@@H](C(N)=O)NC1=O	inconclusive: 20.6 µM [falling, partial curve, poor fit]	–
O=c1c2ccccc2nc2n1C(CSCc1ccc(Cl)cc1)CS2 (configuration not stated)	–	inactive: -23%
COc1cccc(/C=C/c2nc3ccccc3c(=O)n2-c2ccc(C)c(C)c2)c1OC	inconclusive: 20.6 µM [falling, single point]	–
CCOC(=O)c1c(NC(=O)CN2C(=O)NC(C)(c3ccc(Cl)cc3)C2=O)sc(C(=O)NC)c1C (configuration not stated)	–	inactive: -13.4%
Cc1ccc(-c2noc(CCC(=O)Nc3ccccc3N3CCN(C)CC3)n2)cc1	inconclusive: 25.9 µM [activator, partial curve, poor fit]	–
COc1ccc(NC(=O)c2ccco2)cc1NC(=O)COc1cc(C)ccc1C(C)C	–	inactive: -18.6%
COc1ccc(C2CC(c3ccccc3)Oc3cc(OC)c(OC)c(OC)c32)cc1 (configuration not stated)	inconclusive: 7.31 µM [activator, partial curve, poor fit]	–
COC(=O)c1ccc(-n2nnc(-c3nsc(NC(=O)c4ccc(Cl)cc4)n3)c2C)cc1	–	inactive: -4.46%
CCOC(=O)C1=C(c2ccccc2)NC(=S)NC1c1cc([N+](=O)[O-])ccc1OC (configuration not stated)	inconclusive: 6.51 µM [falling, partial curve, poor fit]	–
CCOC(=O)c1c2ccc(OCC(=O)NN)cc2n2ccccc12	inconclusive: 16.4 µM [activator, partial curve]	–
CCOc1ccc(-c2nc(C#N)c(N3CCN(Cc4ccccc4)CC3)o2)cc1	–	inactive: 3.11%
COc1ccccc1NC(=O)c1cc(S(=O)(=O)N2CCC3(CC2)OCCO3)ccc1F	inconclusive: 20.6 µM [activator, partial curve, poor fit]	–
CCOC(=O)C1=NNC(C(=O)c2ccccc2)C1c1ccc(Cl)cc1 (configuration not stated)	–	inactive: -8.11%
COc1ccc(C2=CC(c3ccc(OC)c(OC)c3)n3nnnc3N2)c(OC)c1 (configuration not stated)	inconclusive: 20.6 µM [activator, single point]	–
Cc1ccc2nc(-c3ccc(NC(=O)CN(c4ccccc4C)S(C)(=O)=O)cc3)sc2c1	inconclusive: 14.6 µM [falling, partial curve]	–
CCOc1ccc(Nc2nc(N)nc(CCl)n2)cc1	inconclusive: 16.4 µM [falling, partial curve, poor fit]	–

SMILES	Potency	activity change, negative = cytotoxicity
O=C1Nc2ccc(Br)cc2/C1=C/C(=O)c1ccccc1	inconclusive: 18.4 µM [falling, single point]	–
CCc1ccccc1N(C)C(=O)c1cc2c(Cl)nc3ccc(C)cc3c2s1	–	inactive: -1.41%
CCN(CC)c1ccc(/C=N/Nc2nc3ccccc3[nH]2)c(O)c1	inconclusive: 29.1 µM [falling, single point]	–
O=C(c1cc(-c2cccc(Cl)c2)on1)N1CCCCCC1	–	inactive: 12%
Cc1cnc(C)c(N(C)NC(=S)Nc2ccccc2)n1	inconclusive: 4.11 µM [activator, full curve, poor fit]	–
Cc1ccc(N(CC(=O)Nc2cc(Cl)ccc2Oc2ccccc2)S(C)(=O)=O)cc1C	inconclusive: 20.6 µM [falling, partial curve, poor fit]	–
CCCCNC(=O)c1cnn2c(C)c(Cc3c(C)cc(C)cc3C)c(C)nc12	inconclusive: 29.1 µM [falling, single point]	–
CN1CCN(S(=O)(=O)c2cccc(C(=O)Nc3ccccc3N3CCCC3)c2)CC1	–	inactive: -8.23%
O=c1c2cc(Cl)ccc2nc(-c2ccc([N+](=O)[O-])cc2)n1O	inconclusive: 16.4 µM [falling, single point]	–
Cc1nc2c(-c3ccccc3)c(C)[nH]n2c(=O)c1Cl	inconclusive: 18.4 µM [falling, partial curve, poor fit]	–
c1ccc(-n2nnnc2-c2cnc(-c3ccncc3)nc2-c2cccs2)cc1	–	inactive: 21%
Nc1nn(-c2cccc(F)n2)cc1-c1ccc(Cl)cc1	–	inactive: -2.13%
CCC(C)(C)c1ccc(OCCCC[n+]2ccc(C)cc2)c(C(C)(C)CC)c1	inconclusive: 6.51 µM [falling, partial curve, poor fit]	–
Cc1ccc(-c2cc(C)nc3ncnn23)cc1	–	inactive: 3.41%
Cc1cc(C)c(NC(=O)COCc2cc(-c3cccs3)on2)c(C)c1	–	inactive: 11.3%
O=[N+]([O-])c1ccc(N/N=C/c2cn(-c3ccccc3)nc2-c2ccccc2)cc1	inconclusive: 23.1 µM [falling, partial curve, poor fit]	–
Cn1c(=NC(=O)c2ccco2)sc2ccccc21	–	inactive: -11.3%
O=C(Sc1nnc(-c2ccccc2)o1)N1c2ccccc2Sc2ccccc21	–	inactive: -4.68%
O=[N+]([O-])c1ccc(N/N=C/c2cccc(O)c2O)c(S(=O)(=O)N2CCOCC2)c1	inconclusive: 14.6 µM [falling, single point]	–
C=C1C(=O)[C@@]23[C@H](O)C[C@@H]4C(C)(C)CC[C@H](O)[C@]4(C)[C@@H]2C[C@H](O)[C@@H]1[C@H]3O	inconclusive: 23.1 µM [falling, partial curve, poor fit]	–
CSc1cccc(NC(=O)c2[nH]c(C)c(C(C)=O)c2C)c1	inconclusive: 29.1 µM [falling, single point]	–
